These results are taken from patent publication US11524082B2 (priority 2017, dated 2022).

The nature of series [1]: general procedure: Fmoc solid-phase peptide synthesis; H-Cys(Trt)-2-chlorotrityl resin; 1-[Bis(dimethylamino)methylene]-1H-1,2,3-triazolo[4,5-b]pyridinium 3-oxid hexafl. The settings on record: whole synthesis, scale of the general procedure 100 mg resin.
Series [2] can be described thus: general procedure: Fmoc solid-phase peptide synthesis; H-Cys(Trt)-2-chlorotrityl resin (0.64 mmole/g); 1-[Bis(dimethylamino)methylene]-1H-1,2,3-triazolo[4,5-b]pyridinium 3-oxid hexafl. The settings on record: whole synthesis, scale of the general procedure 100 mg resin.

“(2R,5S,8S)-8-amino-5,12-bis(carboxymethyl)-18-(3-(2-(2-(3-((2-(cyclooctylamino)-3,5,6-trifluoro-4-sulfamoylphenyl)sulfonyl)propanamido)ethoxy)ethoxy)propanamido)-15-(3-guanidinopropyl)-2-(mercaptomethyl)-4,7,11,14,17-pentaoxo-3,6,10,13,16-pentaazaicosanedioic” came in with an isolated yield in series [1] of 62%.
In turn, “((2S)-2-amino-3-(3-carboxy-2-(2-(3-carboxy-2-(3-(2-(2-(3-((2-(cyclooctylamino)-3,5,6-trifluoro-4-sulfamoylphenyl)sulfonyl)propanamido)ethoxy)ethoxy)propanamido)propanamido)-5-guanidinopentanamido)propanamido)propanoyl)-L-aspartic acid” returned an isolated yield in series [2] of 62%.
